Data taken from patent publication US12715946B2, “Composition” (JOSHO GAKUEN EDUCATIONAL FOUNDATION, priority 2020, dated 2026).
Not every detail of the peptide structures is certain; ends, links or a residue may be inferred.

Tested on: Chinese hamster ovary cells (CHO cells)
Experiment: Evaluation of cellular uptake of FITC-labeled model drugs (flow cytometry, MFI)
Format: cell-based
Details: 5 μg/mL, 2 hours incubation, n=3
Procedure: Cellular uptake evaluation of the model drugs described above was conducted using Examples 1 to 3 (polymeric compounds of Manufacturing Examples 1 to 3) or Comparative Examples 1 to 2 (compounds of Manufacturing Examples 4 and 5). A suspension of Ham's F-12 medium (manufactured by Fujifilm Wako Chemical Corporation) containing Chinese hamster ovary cells (CHO cells, 2×10^5 cells/mL) was prepared and seeded at 500μL/well to each well of a 24-well plate. The cells were incubated in a CO2 gas incubator (37° C., 5% CO2) for 24 hours.
Then, the compositions of the Examples and Comparative Examples (Table 1-6) were prepared by mixing 250 μL/well of Ham's F-12 medium containing the above model drugs and 250 μL/well of Ham's F-12 medium containing the manufacturing examples.
Then, the supernatant was removed from each well of the pre-cultured 24-well plate using an aspirator and the cells were washed twice with 500 μL/well of phosphate-buffered saline. Then, the aforementioned compositions were gently added to the wells and incubated in a carbon dioxide incubator for 2 hours. The number of experiments was n=3.
After 2 hours, the supernatants of medium were removed, and the cells were washed twice with 500 μL/well of phosphate-buffered saline. Then, 100 μL/well of trypsin-EDTA solution (0.25% trypsin, 1 mmol/L EDTA solution, Life Technologies) was added, and cultured CHO cells were detached from 24-well plates.
Then, 400 μL/well of trypan blue solution (Fujifilm Wako Chemical Corporation) was added to suspend the cells, and the cells were collected in microtubes. The collected cell suspensions were passed through a cell strainer, and the mean fluorescence intensity (MFI) was measured by flow cytometry. The cells without the polymeric compound (only the model drug was added) were used as controls.
While only the model drug introduced into the cells emits fluorescence. MFI represents the arithmetic average of the fluorescence intensity per cell, and a larger value of MFI indicates a more efficient intracellular uptake of the model drug.

## N=C(N)NCCC[C@@H](N)C(=O)N[C@H](CCCNC(=N)N)C(=O)N[C@H](CCCNC(=N)N)C(=O)N[C@H](CCCNC(=N)N)C(=O)N[C@H](CCCNC(=N)N)C(=O)N[C@H](CCCNC(=N)N)C(=O)N[C@H](CCCNC(=N)N)C(=O)N[C@H](CCCNC(=N)N)C(N)=O [Comparative Example 1, D-octaarginine]
Model drug: FITC-INS (Molecular weight 5,800)
  MFI ± S.D.: 27.4 ± 1.2
Model drug: FITC-IgG (Molecular weight 150,000)
  MFI ± S.D.: 3.3 ± 0.0
Model drug: FITC-IgM (Molecular weight 900,000)
  MFI ± S.D.: 5.9 ± 0.4
Model drug: FITC-OVA (Molecular weight 45,000)
  MFI ± S.D.: 14.3 ± 2.5
Model drug: FITC-Tf (Molecular weight 77,000)
  MFI ± S.D.: 9.8 ± 0.8
